Source: WO2014051109A1 (dated 2014)
No constants are given. Whether binding was seen depends on the method and setting.

Biological target: T1, human BMP9/10 chimeric protein B (human) (UniProt Q9UK05)
T1 sequence 1: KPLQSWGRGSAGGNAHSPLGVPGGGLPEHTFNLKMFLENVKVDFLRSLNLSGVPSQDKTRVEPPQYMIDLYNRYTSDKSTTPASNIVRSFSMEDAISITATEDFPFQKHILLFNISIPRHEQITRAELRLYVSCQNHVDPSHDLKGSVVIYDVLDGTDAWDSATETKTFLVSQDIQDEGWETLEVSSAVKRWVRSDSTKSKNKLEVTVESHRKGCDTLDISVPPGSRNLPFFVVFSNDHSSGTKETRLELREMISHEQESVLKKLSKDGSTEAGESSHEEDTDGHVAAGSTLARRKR
T1 sequence 2: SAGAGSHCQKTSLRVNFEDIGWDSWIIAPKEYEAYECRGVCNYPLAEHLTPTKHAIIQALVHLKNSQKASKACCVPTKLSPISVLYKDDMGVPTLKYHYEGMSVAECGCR
Experiment: condition: 1000 ng/mL antibody; absorbance less than 1; solid-phase antigen ELISA on immobilized chimeric protein (3 ug/mL)

- binding: no binding
B1: 3C7-3-1 antibody (antibody, V domains shown)
VH: EVQLQQSGPELVKPGASVKISCKASGNSFTGYYMNWMKQSPEKSLEWIGEINPSTGATTYNQKFKAKATLTVDKSSSTAYMQLKSLTSEDFAVYYCTRRAAYYFDYWGQGTTLTVSS
VL: QIVLTQSPALMSASPGEKVTMTCSASSSVNYMYWYQQKPRSSPKPWIYLTSNLASGVPARFSGSGSGTSYSLTISSMEAEDAATYYCQQWSSNPRTFGGGTKLEIK
notes: Mouse IgG1, kappa; also called recombinant 3C7-3-1 antibody (mouse IgG1, kappa)
